Some entries share one result that the patent states for a list of compounds.
How the values were obtained:
[1] = system: cat flea (Ctenocephalides felis); assay: Test of efficacy on cat flea (thin film in glass vial); type: in vivo; conditions: 100 µL of 20 ppm chemical in isopropanol dried to thin film in glass vial, adults, after 4 days, 25° C.
[2] = system: Aphis gossypii; assay: Test of efficacy on Aphis gossypii (spray on cucumbers); type: in vivo; conditions: 125 ppm sprayed to cucumbers, first instar larvae, after 5 days, 25° C.

Compound	insecticidal rate [1] [%]	insecticidal rate [2] [%]
CCS(=O)(=O)c1c(-c2ncc(-c3ccc(OC(F)(F)F)cc3)n2C)nc2ccc(C(F)(F)F)cn12 [a-3, 3-(ethylsulfonyl)-2-(1-methyl-5-(4-(trifluoromethoxy)phenyl)-1H-imidazol-2-yl)-6-(trifluoromethyl)imidazo[1,2-a]pyridine]	≥ 80	≥ 80
CCS(=O)(=O)c1c(-c2cn(-c3ccc(OC(F)(F)F)cc3)cn2)nc2ccc(C(F)(F)F)cn12 [a-5]	≥ 80	≥ 80
CCS(=O)(=O)c1c(-c2ncc(-c3ccc(OC(F)(F)F)c(Cl)c3)n2C)nc2ccc(C(F)(F)F)cn12 [a-7]		≥ 80
CCS(=O)(=O)c1c(-n2cc(-c3ccc(OC(F)(F)F)cc3)cn2)nc2ccc(C(F)(F)F)cn12 [a-9]	≥ 80	
CCS(=O)(=O)c1c(-c2cn(/C=C(\F)C(F)(F)C(F)(F)F)cn2)nc2ccc(C(F)(F)F)cn12 [a-11]		≥ 80
CCS(=O)(=O)c1c(-c2ncc(/C=C/C(F)(F)C(F)(F)F)n2C)nc2ccc(C(F)(F)F)cn12 [a-13]	≥ 80	≥ 80
CCS(=O)(=O)c1c(-c2ncc(/C=C(/F)C(F)(F)C(F)(F)F)n2C)nc2ccc(C(F)(F)F)cn12 [a-16]		≥ 80
CCS(=O)(=O)c1c(-c2ncc(/C=C(\F)C(F)(F)C(F)(F)F)n2C)nc2ccc(C(F)(F)F)cn12 [a-17]	≥ 80	≥ 80
CCS(=O)(=O)c1c(-c2ncc(C=C(F)Br)n2C)nc2ccc(C(F)(F)F)cn12 [a-18]	≥ 80	
CCS(=O)(=O)c1c(-c2ncc(C=C(F)C(F)(F)C(F)(F)F)n2C)nc2cc(C(F)(F)F)ccn12 [a-19]	≥ 80	
CCS(=O)(=O)c1c(-c2ncc(C=C(F)C(F)(F)C(F)(F)F)n2C)nc2ccc(C(F)(F)F)cn12 [a-20]	≥ 80	≥ 80

Reference: US20230357232A1, “IMIDAZO[1,2-A]PYRIDINE COMPOUND AND PEST CONTROL AGENT” (Nippon Soda Co., Ltd., priority 2020, published 2023)
